Measurements reported in patent publication US20110039770A1, “INHIBITORS OF PROTEIN KINASE C ISOFORMS AND USES THEREOF” (PHARMAGAP INC., priority 2005, published 2011).

B1: PRE 1 (peptide)
peptide: RRKKGGKDFVVKR
B2: PRE 3 (peptide)
peptide: AKGIQEVKGGDAQNLIGISI
modifications: N-terminal acetyl (Ac-); C-terminal amide (-NH2)
B3: PRE 11 (peptide)
peptide: RDAQNLIGISI
modifications: N-terminal acetyl (Ac-); C-terminal amide (-NH2)
B4: PRE 4 (peptide)
peptide: KDAQNLIGISI
modifications: N-terminal acetyl (Ac-); C-terminal amide (-NH2)
B5: PRE 7 (peptide)
peptide: ISIGILQNADK
modifications: N-terminal acetyl (Ac-); C-terminal amide (-NH2)
B6: PRE 8 (peptide)
peptide: ILEDKGGDAQNLIGISI
B7: PRE 10 (peptide)
peptide: ISIGILNQADK
modifications: N-terminal acetyl (Ac-); C-terminal amide (-NH2)
B8: PRE 12 (peptide)
peptide: KDAQNLI
modifications: N-terminal acetyl (Ac-); C-terminal amide (-NH2)
B9: PRE 13 (peptide)
peptide: RDAQNLI
modifications: N-terminal acetyl (Ac-); C-terminal amide (-NH2)
B10: PRE 5 (peptide)
peptide: AKGIQEVKGGKDAQNLIGISI
modifications: N-terminal acetyl (Ac-); C-terminal amide (-NH2)
B11: PRE 6 (peptide)
peptide: KDANQLIGISI
modifications: N-terminal acetyl (Ac-); C-terminal amide (-NH2)

Tests used:
PKC-ζ (purified isoform) [1] = assay: competitive ELISA, purified PKC-ζ
PKC-δ (purified isoform) [2] = assay: competitive ELISA, purified isoform
PKC-ε (purified isoform) [3] = assay: competitive ELISA, purified isoform
PKC-ζ (purified isoform) [4] = assay: competitive ELISA, purified isoform
PKC-δ (purified isoform) [5] = assay: competitive ELISA, purified isoforms
PKC-ε (purified isoform) [6] = assay: competitive ELISA, purified isoforms
PKC-ζ (purified isoform) [7] = assay: competitive ELISA, purified isoforms

Binder	binding (PKC-ζ (purified isoform) [1])	binding (PKC-δ (purified isoform) [2])	other results
B1	no binding (tested: 50-200 µM)	binds	
B2		binds	binding (PKC-ε (purified isoform) [3]): binds; binding (PKC-ζ (purified isoform) [4]): binds; binding (PKC-δ (purified isoform) [5]): binds; binding (PKC-ε (purified isoform) [6]): binds; binding (PKC-ζ (purified isoform) [7]): binds
B3	no binding (tested: 50-200 µM)	binds	
B4	no binding (tested: 50-200 µM)	binds	
B5	no binding (tested: 50-200 µM)		
B6	no binding (tested: 50-200 µM)		
B7	no binding (tested: 50-200 µM)		
B8	no binding (tested: 50-200 µM)		
B9	no binding (tested: 50-200 µM)		
B10	no binding (tested: 50-200 µM)		
B11	no binding (tested: 50-200 µM)		

These are yes or no findings as the source states them, for the method shown. For some of these results: A result given as binding can be weak or reduced; the word gives no strength.
